According to patent publication US20220289816A1, “IMMUNOTHERAPY WITH B*07 RESTRICTED PEPTIDES AND COMBINATION OF PEPTIDES AGAINST CANCERS AND RELATED METHODS” (Immatics Biotechnologies GmbH, priority 2018, published 2022):

Each substance was assayed on tumor tissue samples and normal tissue samples (HLA-B*07 positive) (assay: Identification and quantitation of tumor associated peptides presented on the cell surface (HLA immunoprecipitation, label-free LC-MS)). Conditions: HLA ligands of primary tumor tissue samples, LC-MS.
Design: species or system human
“SEQ ID No. 34: peptide found in PGR (gene looked up) (APMAPGRSP; listed as Homo sapiens)” was tested, and the “presentation on various cancer entities” value was “breast cancer and uterine and endometrial cancer”.

Same assay, conditions: Table 8a; cancer entities on which the peptide was found presented (abbreviations in table head)
With “241 (LPKAALLV; listed as Homo sapiens) [compound 241]” the “Peptide Presentation on cancer entities” value was “CLL”.
“264 (APRPGNWIL; listed as Homo sapiens) [compound 264]” was tested, and the “Peptide Presentation on cancer entities” value was “MEL, NSCLCsquam”.
For “46 (QPISGNPVTL; listed as Homo sapiens) [compound 46]”, the “Peptide Presentation on cancer entities” value was “NHL, NSCLCsquam, SCLC, UBC”.
With “305 (AASPVGSAL; listed as Homo sapiens) [compound 305]” the “Peptide Presentation on cancer entities” value was “HCC”.
With “235 (AQNPAGTAL; listed as Homo sapiens) [compound 235]” the “Peptide Presentation on cancer entities” value was “MEL”.
With “115 (KTKSLAQQL; listed as Homo sapiens) [compound 115]” the “Peptide Presentation on cancer entities” value was “CRC, NSCLCadeno, UEC”.
For “296 (SPLLMQRTL; listed as Homo sapiens) [compound 296]”, the “Peptide Presentation on cancer entities” value was “CLL, NHL”.
For “323 (TPHGITDIL; listed as Homo sapiens) [compound 323]”, the “Peptide Presentation on cancer entities” value was “CRC, UEC”.
“151 (QPTWNTQTRL; listed as Homo sapiens) [compound 151]” was tested, and the “Peptide Presentation on cancer entities” value was “NHL”.
“98 (FPCSALLACF; listed as Homo sapiens) [compound 98]” was tested, and the “Peptide Presentation on cancer entities” value was “OSCAR”.
With “133 (LPELPTTLTF; listed as Homo sapiens) [compound 133]” the “Peptide Presentation on cancer entities” value was “NSCLCadeno”.
In the case of “8 (MPKTNLSKM; listed as Homo sapiens) [compound 8]”, the “Peptide Presentation on cancer entities” value is reported as “HNSCC”.
In the case of “242 (IPETASVVAI; listed as Homo sapiens) [compound 242]”, the “Peptide Presentation on cancer entities” value is reported as “AML, CCC, CRC, NSCLCadeno, NSCLCsquam”.
With “130 (GAYDKARYL; listed as Homo sapiens) [compound 130]” the “Peptide Presentation on cancer entities” value was “BRCA”.
In the case of “144 (RPVQGIPTY; listed as Homo sapiens) [compound 144]”, the “Peptide Presentation on cancer entities” value is reported as “MEL”.
With “368 (NPASRLTAL; listed as Homo sapiens) [compound 368]” the “Peptide Presentation on cancer entities” value was “BRCA, CCC, CRC, GBC, GBM, GC, HCC, HNSCC, MEL, NHL, NSCLCadeno, NSCLCsquam, OC, OSCAR, PACA, PRCA, RCC, SCLC, UBC, UEC”.
In the case of “229 (FPNAGPRHLL; listed as Homo sapiens) [compound 229]”, the “Peptide Presentation on cancer entities” value is reported as “AML, CLL, NHL, OC, RCC”.
In the case of “316 (NPREPEKSL; listed as Homo sapiens) [compound 316]”, the “Peptide Presentation on cancer entities” value is reported as “BRCA, CRC, GBC, GC, HCC, OSCAR, SCLC”.
“68 (FPNEVSVVL; listed as Homo sapiens) [compound 68]” was tested, and the “Peptide Presentation on cancer entities” value was “BRCA, MEL, NSCLCadeno, NSCLCsquam, OC, OSCAR”.
With “39 (QPRPSSEKI; listed as Homo sapiens) [compound 39]” the “Peptide Presentation on cancer entities” value was “AML”.
For “375 (LPRGVLEGL; listed as Homo sapiens) [compound 375]”, the “Peptide Presentation on cancer entities” value was “CRC, NSCLCadeno, UEC”.
With “174 (IPVTSSVTL; listed as Homo sapiens) [compound 174]” the “Peptide Presentation on cancer entities” value was “NSCLCsquam,OSCAR”.
In the case of “383 (KPRATWTLKL; listed as Homo sapiens) [compound 383]”, the “Peptide Presentation on cancer entities” value is reported as “BRCA, CCC, CRC, GBC, GC, HCC, HNSCC, MEL, NHL, NSCLCadeno, NSCLCsquam, OC, OSCAR, RCC, SCLC, UEC”.
In the case of “54 (VPSCGRSVEGL; listed as Homo sapiens) [compound 54]”, the “Peptide Presentation on cancer entities” value is reported as “CLL, GBC, NHL, NSCLCadeno, OC, OSCAR, PACA, RCC, UEC”.
In the case of “324 (LPAPLRISL; listed as Homo sapiens) [compound 324]”, the “Peptide Presentation on cancer entities” value is reported as “BRCA, GBM, MEL, NSCLCadeno, OC, UEC”.
For “233 (MAYDRFIAI; listed as Homo sapiens) [compound 233]”, the “Peptide Presentation on cancer entities” value was “CRC, GBC, NSCLCadeno, RCC”.
In the case of “193 (LPALKEEAF; listed as Homo sapiens) [compound 193]”, the “Peptide Presentation on cancer entities” value is reported as “PRCA”.
For “137 (SPQLSYFEY; listed as Homo sapiens) [compound 137]”, the “Peptide Presentation on cancer entities” value was “OSCAR”.
In the case of “49 (APEKARAFL; listed as Homo sapiens) [compound 49]”, the “Peptide Presentation on cancer entities” value is reported as “OSCAR”.
With “168 (SPSGQRDVSL; listed as Homo sapiens) [compound 168]” the “Peptide Presentation on cancer entities” value was “MEL”.
For “160 (IPVSHPVLTF; listed as Homo sapiens) [compound 160]”, the “Peptide Presentation on cancer entities” value was “BRCA, CRC, GBM, HCC, NSCLCadeno”.
For “194 (HPNKIKASL; listed as Homo sapiens) [compound 194]”, the “Peptide Presentation on cancer entities” value was “BRCA”.
“340 (APEPRAALL; listed as Homo sapiens) [compound 340]” was tested, and the “Peptide Presentation on cancer entities” value was “MEL, NSCLCsquam, OC”.
With “320 (APMHIDRNIL; listed as Homo sapiens) [compound 320]” the “Peptide Presentation on cancer entities” value was “HCC”.
With “24 (VPRPTSTVGLFL; listed as Homo sapiens) [compound 24]” the “Peptide Presentation on cancer entities” value was “MEL”.
In the case of “247 (SPVGVGQRL; listed as Homo sapiens) [compound 247]”, the “Peptide Presentation on cancer entities” value is reported as “SCLC”.
For “177 (VWEPQGSSRSL; listed as Homo sapiens) [compound 177]”, the “Peptide Presentation on cancer entities” value was “UEC”.
For “339 (GPQRTTSV; listed as Homo sapiens) [compound 339]”, the “Peptide Presentation on cancer entities” value was “CCC”.
With “195 (NPIFGRKEL; listed as Homo sapiens) [compound 195]” the “Peptide Presentation on cancer entities” value was “UEC”.
For “209 (KIEQIRAVL; listed as Homo sapiens) [compound 209]”, the “Peptide Presentation on cancer entities” value was “OSCAR”.
With “5 (LPSLSHCSQL; listed as Homo sapiens) [compound 5]” the “Peptide Presentation on cancer entities” value was “MEL”.
In the case of “178 (VPYYPRANL; listed as Homo sapiens) [compound 178]”, the “Peptide Presentation on cancer entities” value is reported as “OSCAR”.
For “377 (SPFSKRIKL; listed as Homo sapiens) [compound 377]”, the “Peptide Presentation on cancer entities” value was “AML, BRCA, CLL, GC, HNSCC, MEL, NHL, NSCLCadeno, NSCLCsquam, OC, OSCAR, RCC, SCLC, UBC, UEC”.
“325 (SPRSNPVRL; listed as Homo sapiens) [compound 325]” was tested, and the “Peptide Presentation on cancer entities” value was “NHL”.
With “292 (LPMTHRLQL; listed as Homo sapiens) [compound 292]” the “Peptide Presentation on cancer entities” value was “MEL”.
“253 (MPVDSFNSML; listed as Homo sapiens) [compound 253]” was tested, and the “Peptide Presentation on cancer entities” value was “CRC, MEL, NSCLCsquam, SCLC, UBC”.
With “127 (KSKQVITLL; listed as Homo sapiens) [compound 127]” the “Peptide Presentation on cancer entities” value was “NSCLCsquam”.
For “332 (SPYAGSTAF; listed as Homo sapiens) [compound 332]”, the “Peptide Presentation on cancer entities” value was “AML, NSCLCadeno”.
“357 (LPPHIFAI; listed as Homo sapiens) [compound 357]” was tested, and the “Peptide Presentation on cancer entities” value was “CRC, GC, HCC, UEC”.

Same assay, conditions: Table 8b; cancer entities on which the peptide was found presented (abbreviations in table head)
For “462 (MPLLADVRL; listed as Homo sapiens) [compound 462]”, the “Peptide Presentation on cancer entities” value was “MEL”.
“475 (IPLEIQKL; listed as Homo sapiens) [compound 475]” was tested, and the “Peptide Presentation on cancer entities” value was “MEL”.
In the case of “450 (SAAARALLP; listed as Homo sapiens) [compound 450]”, the “Peptide Presentation on cancer entities” value is reported as “CCC, CRC, GBM, GC, HCC, NSCLCother, NSCLCsquam, PACA, SCLC, UEC”.
With “479 (APHAGGALL; listed as Homo sapiens) [compound 479]” the “Peptide Presentation on cancer entities” value was “NSCLCsquam”.
